Source: article PMC9388692, “Nuclear import of PTPN18 inhibits breast cancer metastasis mediated by MVP and importin β2” (Cell Death & Disease, 2022)

By UniProt entry, the sequences of proteins in these tests, tags left out.
UniProt Q14764: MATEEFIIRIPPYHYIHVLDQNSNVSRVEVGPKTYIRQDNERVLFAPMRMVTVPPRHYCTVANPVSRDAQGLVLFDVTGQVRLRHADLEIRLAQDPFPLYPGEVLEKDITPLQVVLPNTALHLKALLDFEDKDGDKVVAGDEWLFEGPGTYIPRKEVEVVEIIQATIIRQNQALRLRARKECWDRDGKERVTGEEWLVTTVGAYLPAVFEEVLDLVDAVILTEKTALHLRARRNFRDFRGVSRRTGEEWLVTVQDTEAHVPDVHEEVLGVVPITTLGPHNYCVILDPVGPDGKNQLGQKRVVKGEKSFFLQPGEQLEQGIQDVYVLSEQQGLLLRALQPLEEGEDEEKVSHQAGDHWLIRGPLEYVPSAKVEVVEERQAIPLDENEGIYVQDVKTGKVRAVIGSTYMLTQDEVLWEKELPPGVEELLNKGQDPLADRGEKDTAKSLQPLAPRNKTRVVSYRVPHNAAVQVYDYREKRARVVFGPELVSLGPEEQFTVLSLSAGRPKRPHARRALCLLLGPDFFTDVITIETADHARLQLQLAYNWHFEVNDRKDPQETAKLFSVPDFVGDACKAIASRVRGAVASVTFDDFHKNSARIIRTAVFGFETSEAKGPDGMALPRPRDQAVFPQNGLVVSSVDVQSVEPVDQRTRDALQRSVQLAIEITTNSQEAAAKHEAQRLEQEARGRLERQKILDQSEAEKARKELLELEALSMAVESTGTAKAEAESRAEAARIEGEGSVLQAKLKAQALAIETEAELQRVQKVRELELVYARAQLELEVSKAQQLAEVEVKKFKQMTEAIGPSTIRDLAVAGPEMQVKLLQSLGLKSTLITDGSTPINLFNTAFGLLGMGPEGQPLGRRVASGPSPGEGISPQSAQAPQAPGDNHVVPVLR

Biological target: T1, PTPN18 (endogenous) (human (endogenous in MCF7 and T-47D)) (UniProt Q99952)
T1 sequence: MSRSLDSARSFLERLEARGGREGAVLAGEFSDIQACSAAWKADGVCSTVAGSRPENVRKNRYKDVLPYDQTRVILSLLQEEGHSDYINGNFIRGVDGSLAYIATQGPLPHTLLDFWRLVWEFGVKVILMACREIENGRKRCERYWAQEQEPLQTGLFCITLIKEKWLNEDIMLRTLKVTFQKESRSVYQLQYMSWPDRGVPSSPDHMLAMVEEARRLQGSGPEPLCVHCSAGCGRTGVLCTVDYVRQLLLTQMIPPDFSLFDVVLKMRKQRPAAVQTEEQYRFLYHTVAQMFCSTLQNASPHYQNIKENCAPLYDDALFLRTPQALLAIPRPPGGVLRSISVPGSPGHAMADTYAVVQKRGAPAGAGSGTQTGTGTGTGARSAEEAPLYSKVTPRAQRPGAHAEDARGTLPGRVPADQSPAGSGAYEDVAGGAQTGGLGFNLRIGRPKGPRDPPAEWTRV
Assay: affinity purification with mass spectrometry; immunoprecipitation of PTPN18 from MCF7 cells followed by LC-MS/MS

Substance: MVP (endogenous) (from UniProt Q14764 1-893)
- binding: binds

No constants are given. Whether binding was seen depends on the method and setting. In cells and extracts the contact can be indirect. A yes stands for co-enrichment or nearness to the bait. Other partners may have been found.
